No constants are given. Whether binding was seen depends on the method and setting. In cells and extracts the contact can be indirect. Tags and fused reporters may be left off the sequences shown.
Molecular target: bacterially expressed GST-14-3-3 (human)
Test: pull-down; GST-14-3-3 added to lysates of mock- or UV-treated cells (293, HCT116, U2OS) and retrieved; blot for tagged RBM7 or ZCCHC8; also a time course after UV-C, ATR or CHK1 inhibitors, control or MK2 siRNA; only the target purified

binding	Binder
no binding	GFP-RBM7-S136A (protein, UniProt Q9Y580 1-266) MGAAAAEADRTLFVGNLETKVTEELLFELFHQAGPVIKVKIPKDKDGKPKQFAFVNFKHEVSVPYAMNLLNGIKLYGRPIKIQFRSGSSHAPQDVSLSYPQHHVGNSSPTSTSPSRYERTMDNMTSSAQIIQRSFASPENFQRQAVMNSALRQMSYGGKFGSSPLDQSGFSPSVQSHSHSFNQSSSSQWRQGTPSSQRKVRMNSYPYLADRHYSREQRYTDHGSDHHYRGKRDDFFYEDRNHDDWSHDYDNRRDSSRDGKWRSSRH
no binding	GFP-RBM7-S204A (protein, UniProt Q9Y580 1-266) MGAAAAEADRTLFVGNLETKVTEELLFELFHQAGPVIKVKIPKDKDGKPKQFAFVNFKHEVSVPYAMNLLNGIKLYGRPIKIQFRSGSSHAPQDVSLSYPQHHVGNSSPTSTSPSRYERTMDNMTSSAQIIQRSFSSPENFQRQAVMNSALRQMSYGGKFGSSPLDQSGFSPSVQSHSHSFNQSSSSQWRQGTPSSQRKVRMNAYPYLADRHYSREQRYTDHGSDHHYRGKRDDFFYEDRNHDDWSHDYDNRRDSSRDGKWRSSRH
no binding	GFP-RBM7 with both serines mutated to alanine (S136A/S204A) (protein, UniProt Q9Y580 1-266) MGAAAAEADRTLFVGNLETKVTEELLFELFHQAGPVIKVKIPKDKDGKPKQFAFVNFKHEVSVPYAMNLLNGIKLYGRPIKIQFRSGSSHAPQDVSLSYPQHHVGNSSPTSTSPSRYERTMDNMTSSAQIIQRSFASPENFQRQAVMNSALRQMSYGGKFGSSPLDQSGFSPSVQSHSHSFNQSSSSQWRQGTPSSQRKVRMNAYPYLADRHYSREQRYTDHGSDHHYRGKRDDFFYEDRNHDDWSHDYDNRRDSSRDGKWRSSRH

Reference: publication PMC4173157
